Measurements reported in the supplement of paper PMC11732987, “Enantioselective OTUD7B fragment discovery through chemoproteomics screening and high-throughput optimisation” (Communications Chemistry, 2025).
This is one part of the list. The data scatter; read single values as rough.

By UniProt entry, the sequences of proteins in these tests, tags left out. Where a name states a change or a piece, a line headed by the entry shows the natural chain unless it says otherwise. Residues count along the entry.
UniProt Q99832: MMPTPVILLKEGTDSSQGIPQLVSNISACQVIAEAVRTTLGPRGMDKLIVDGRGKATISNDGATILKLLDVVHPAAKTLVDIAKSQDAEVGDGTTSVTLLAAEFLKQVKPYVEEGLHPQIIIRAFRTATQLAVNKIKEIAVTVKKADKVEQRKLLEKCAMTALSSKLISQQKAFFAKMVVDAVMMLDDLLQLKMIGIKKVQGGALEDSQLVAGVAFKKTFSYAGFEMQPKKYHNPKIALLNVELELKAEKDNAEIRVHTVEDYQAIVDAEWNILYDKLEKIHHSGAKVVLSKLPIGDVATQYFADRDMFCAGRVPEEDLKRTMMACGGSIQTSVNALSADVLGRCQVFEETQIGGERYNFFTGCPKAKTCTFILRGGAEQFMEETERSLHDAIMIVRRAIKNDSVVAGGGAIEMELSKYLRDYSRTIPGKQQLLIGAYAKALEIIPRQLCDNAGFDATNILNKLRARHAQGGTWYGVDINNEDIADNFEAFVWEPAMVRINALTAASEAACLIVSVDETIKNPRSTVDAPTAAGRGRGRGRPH
UniProt Q9P219: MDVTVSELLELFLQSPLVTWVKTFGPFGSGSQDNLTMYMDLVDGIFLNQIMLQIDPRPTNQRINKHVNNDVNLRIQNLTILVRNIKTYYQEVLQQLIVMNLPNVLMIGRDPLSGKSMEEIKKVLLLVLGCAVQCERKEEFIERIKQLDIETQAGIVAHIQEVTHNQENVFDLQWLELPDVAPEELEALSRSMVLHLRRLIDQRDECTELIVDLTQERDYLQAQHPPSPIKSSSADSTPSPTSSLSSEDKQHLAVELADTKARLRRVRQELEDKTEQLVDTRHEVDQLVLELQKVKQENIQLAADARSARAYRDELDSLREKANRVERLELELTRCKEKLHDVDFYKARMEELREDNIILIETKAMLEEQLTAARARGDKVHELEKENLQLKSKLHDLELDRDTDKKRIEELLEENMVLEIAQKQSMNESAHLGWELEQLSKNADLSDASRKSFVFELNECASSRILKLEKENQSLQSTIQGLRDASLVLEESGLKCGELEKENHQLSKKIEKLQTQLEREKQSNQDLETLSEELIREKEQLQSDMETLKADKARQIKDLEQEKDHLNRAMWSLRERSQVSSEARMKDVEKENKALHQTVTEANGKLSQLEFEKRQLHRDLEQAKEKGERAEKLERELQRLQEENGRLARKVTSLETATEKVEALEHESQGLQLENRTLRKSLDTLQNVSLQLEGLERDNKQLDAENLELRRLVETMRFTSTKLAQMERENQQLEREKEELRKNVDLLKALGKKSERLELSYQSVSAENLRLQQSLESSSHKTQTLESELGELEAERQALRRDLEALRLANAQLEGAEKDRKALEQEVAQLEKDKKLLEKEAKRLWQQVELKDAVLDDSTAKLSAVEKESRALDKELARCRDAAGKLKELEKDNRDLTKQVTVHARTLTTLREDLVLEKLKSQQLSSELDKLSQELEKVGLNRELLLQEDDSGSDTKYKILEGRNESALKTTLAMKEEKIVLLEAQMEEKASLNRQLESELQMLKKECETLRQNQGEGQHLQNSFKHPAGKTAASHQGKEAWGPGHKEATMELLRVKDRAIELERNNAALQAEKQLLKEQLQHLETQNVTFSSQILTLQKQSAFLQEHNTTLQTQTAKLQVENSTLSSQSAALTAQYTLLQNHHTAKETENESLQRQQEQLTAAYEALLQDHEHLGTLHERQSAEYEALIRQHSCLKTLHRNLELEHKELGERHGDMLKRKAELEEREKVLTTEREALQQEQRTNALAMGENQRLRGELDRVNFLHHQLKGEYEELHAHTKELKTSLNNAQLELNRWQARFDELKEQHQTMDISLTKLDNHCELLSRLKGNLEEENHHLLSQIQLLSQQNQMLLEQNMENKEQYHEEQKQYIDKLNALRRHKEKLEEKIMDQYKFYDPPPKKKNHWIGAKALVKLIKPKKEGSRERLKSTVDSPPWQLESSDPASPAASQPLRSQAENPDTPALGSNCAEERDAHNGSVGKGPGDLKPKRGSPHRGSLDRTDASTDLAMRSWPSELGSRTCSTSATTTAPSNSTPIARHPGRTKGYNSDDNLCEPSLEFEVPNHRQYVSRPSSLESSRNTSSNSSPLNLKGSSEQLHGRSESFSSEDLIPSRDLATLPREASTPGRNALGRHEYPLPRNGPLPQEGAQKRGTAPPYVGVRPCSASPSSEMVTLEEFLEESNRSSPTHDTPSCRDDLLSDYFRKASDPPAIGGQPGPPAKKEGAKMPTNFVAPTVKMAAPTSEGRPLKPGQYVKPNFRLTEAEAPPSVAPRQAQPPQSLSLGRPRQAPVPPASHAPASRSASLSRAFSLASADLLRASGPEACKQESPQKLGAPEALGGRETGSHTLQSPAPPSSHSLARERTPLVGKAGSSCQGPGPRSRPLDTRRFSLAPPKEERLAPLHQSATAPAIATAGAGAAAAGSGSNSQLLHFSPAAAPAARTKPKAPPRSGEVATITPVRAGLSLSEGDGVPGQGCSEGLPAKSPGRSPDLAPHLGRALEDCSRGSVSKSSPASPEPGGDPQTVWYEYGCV
UniProt P49454: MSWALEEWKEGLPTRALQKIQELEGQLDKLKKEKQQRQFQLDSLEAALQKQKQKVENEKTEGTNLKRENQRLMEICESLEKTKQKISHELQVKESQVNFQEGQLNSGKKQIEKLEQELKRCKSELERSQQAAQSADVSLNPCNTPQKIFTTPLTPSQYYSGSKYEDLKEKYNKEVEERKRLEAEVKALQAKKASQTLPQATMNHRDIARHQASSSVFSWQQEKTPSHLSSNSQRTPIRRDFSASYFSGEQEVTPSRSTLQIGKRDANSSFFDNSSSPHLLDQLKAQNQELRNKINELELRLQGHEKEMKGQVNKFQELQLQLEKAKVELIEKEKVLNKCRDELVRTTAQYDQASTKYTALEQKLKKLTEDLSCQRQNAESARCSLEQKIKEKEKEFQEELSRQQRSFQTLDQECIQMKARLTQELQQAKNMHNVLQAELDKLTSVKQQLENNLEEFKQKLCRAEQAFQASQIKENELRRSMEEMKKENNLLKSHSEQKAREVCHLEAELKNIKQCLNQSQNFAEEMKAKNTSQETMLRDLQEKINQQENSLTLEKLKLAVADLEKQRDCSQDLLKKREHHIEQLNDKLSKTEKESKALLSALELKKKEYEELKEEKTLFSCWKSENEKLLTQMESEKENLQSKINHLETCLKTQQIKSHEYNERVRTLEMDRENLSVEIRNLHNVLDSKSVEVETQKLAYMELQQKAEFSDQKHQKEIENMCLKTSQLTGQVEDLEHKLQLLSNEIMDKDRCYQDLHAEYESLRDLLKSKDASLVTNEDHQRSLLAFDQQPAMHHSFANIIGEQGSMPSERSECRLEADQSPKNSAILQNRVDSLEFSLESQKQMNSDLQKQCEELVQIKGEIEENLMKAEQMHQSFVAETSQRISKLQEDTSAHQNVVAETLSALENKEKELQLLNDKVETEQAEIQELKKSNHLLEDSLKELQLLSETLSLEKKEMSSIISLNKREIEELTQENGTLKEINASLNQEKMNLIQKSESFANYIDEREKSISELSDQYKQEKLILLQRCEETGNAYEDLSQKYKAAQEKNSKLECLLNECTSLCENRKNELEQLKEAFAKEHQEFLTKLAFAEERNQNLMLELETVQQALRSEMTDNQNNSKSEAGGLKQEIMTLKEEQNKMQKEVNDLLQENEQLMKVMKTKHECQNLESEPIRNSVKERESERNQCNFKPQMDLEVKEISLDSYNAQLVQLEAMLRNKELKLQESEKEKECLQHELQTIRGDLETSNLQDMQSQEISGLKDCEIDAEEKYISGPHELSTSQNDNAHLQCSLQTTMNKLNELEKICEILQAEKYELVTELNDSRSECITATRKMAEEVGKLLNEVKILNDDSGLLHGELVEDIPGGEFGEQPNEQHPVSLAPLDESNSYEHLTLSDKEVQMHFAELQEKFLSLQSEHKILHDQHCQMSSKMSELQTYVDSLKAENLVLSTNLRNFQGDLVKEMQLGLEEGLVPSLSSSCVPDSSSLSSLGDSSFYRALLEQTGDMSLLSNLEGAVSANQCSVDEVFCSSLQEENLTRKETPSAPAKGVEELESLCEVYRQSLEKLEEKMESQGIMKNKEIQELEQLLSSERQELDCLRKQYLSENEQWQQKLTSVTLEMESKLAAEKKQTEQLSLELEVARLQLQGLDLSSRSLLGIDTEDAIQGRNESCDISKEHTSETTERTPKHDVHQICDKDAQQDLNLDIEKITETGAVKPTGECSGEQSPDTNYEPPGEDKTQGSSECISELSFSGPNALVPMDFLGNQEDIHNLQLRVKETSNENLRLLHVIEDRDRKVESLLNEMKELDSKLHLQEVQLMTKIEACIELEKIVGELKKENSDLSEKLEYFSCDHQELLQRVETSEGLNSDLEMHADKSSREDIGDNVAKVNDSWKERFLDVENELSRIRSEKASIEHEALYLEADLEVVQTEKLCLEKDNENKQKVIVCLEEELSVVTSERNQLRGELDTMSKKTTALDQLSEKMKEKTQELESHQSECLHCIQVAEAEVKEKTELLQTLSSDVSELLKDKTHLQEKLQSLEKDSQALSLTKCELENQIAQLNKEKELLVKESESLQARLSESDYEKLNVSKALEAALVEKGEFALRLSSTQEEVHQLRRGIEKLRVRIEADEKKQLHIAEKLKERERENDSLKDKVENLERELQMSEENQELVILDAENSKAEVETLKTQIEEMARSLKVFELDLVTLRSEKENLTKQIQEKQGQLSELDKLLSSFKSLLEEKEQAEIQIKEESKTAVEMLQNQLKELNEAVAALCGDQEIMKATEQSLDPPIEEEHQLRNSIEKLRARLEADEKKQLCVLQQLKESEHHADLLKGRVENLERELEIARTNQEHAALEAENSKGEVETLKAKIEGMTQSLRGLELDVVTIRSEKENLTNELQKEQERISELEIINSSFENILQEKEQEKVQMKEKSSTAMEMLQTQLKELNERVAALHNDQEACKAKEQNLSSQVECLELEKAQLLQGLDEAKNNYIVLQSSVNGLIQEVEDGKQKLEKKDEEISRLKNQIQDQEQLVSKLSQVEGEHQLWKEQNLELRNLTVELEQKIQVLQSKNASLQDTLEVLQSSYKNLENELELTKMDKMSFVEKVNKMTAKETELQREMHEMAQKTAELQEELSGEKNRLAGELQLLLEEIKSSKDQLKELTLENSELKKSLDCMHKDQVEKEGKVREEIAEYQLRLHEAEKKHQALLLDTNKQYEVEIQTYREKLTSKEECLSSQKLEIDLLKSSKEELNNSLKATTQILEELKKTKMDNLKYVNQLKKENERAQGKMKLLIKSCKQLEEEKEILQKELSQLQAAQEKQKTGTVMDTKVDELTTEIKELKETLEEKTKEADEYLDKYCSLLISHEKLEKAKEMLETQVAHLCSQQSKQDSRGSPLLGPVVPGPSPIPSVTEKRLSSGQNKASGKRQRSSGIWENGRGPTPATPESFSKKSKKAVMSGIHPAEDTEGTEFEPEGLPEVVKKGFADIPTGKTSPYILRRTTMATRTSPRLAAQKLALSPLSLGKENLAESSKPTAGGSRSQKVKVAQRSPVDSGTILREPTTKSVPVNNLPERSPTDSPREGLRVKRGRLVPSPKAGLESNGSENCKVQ
UniProt Q8TCZ2: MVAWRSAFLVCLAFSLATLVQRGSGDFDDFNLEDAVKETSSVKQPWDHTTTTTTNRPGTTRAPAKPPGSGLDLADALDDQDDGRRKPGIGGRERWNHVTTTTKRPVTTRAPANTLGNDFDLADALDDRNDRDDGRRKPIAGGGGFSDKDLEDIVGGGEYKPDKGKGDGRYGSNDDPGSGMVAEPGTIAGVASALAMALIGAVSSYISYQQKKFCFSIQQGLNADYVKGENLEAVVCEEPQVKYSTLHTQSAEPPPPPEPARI
UniProt Q9C0D2, 2288-2308: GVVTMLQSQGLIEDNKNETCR
UniProt P49336: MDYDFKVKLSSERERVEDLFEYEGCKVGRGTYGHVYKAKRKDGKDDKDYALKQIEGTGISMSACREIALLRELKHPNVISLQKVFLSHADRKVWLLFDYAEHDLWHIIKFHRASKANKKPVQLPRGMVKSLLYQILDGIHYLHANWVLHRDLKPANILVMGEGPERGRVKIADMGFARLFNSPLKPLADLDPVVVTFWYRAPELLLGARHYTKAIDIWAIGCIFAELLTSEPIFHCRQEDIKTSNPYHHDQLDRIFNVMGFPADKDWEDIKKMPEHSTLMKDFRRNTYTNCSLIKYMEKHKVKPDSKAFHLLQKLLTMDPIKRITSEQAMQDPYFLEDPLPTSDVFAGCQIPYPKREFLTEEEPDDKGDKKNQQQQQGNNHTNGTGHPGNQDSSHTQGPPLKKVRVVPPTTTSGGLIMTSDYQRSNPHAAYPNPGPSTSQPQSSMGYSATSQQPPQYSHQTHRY
UniProt P42773: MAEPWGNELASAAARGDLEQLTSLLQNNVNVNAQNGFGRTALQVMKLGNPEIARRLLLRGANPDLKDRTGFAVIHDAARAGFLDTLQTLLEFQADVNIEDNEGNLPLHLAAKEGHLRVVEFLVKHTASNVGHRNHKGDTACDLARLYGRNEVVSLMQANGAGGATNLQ

compound: ClCC(=O)N[C@@H]1CCCc2ccccc12; assay: log2 mean competition ratio of IA-DTB cysteine labelling (DMSO/compound) (log2 ratio); higher = stronger cysteine engagement by compound; settings: 50 µM; treatment time: 4 h; cell line lysate: HEK293T
Experimental: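 IA-DTB competitive cysteine chemoproteomics in HEK293T RIPA lysate. Lysates were treated with compound 29 or 30 at 50 or 200 µM for 4 h, then IA-DTB (500 µM, 1 h), trypsin-digested, NeutrAvidin-enriched and analysed by diaPASEF. Competition ratio = intensity DMSO / intensity compound (n=4 treated, n=64 DMSO); binding: mean log2 CR ≥ 1 and p ≤ 0.05 plus QC filters. Target is the cysteine site.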

| Target | log2 mean competition ratio |
| --- | --- |
| CCT7 C370 (UniProt Q99832) | 0.104 |
| CCDC88A C235 (UniProt Q3V6T2) | 0.582 |
| CCDC88C C1520 (UniProt Q9P219) | 0.099 |
| CENPF C2738 (UniProt P49454) | -0.0931 |
| CFAP298 C83 (UniProt P57076) | -0.0952 |
| CEP350 C179 (UniProt Q5VT06) | -0.244 |
| CD99L2 C236 (UniProt Q8TCZ2) | -0.271 |
| CDK4 C215 (UniProt P11802) | -0.0394 |
| CEP104 C525 (UniProt O60308) | -0.152 |
| CENPE C2643 (UniProt Q02224) | 0.0923 |
| CDC25C C42 (UniProt P30307) | 0.047 |

same assay, conditions: 200 µM; treatment time: 4 h; cell line lysate: HEK293T

| Target | log2 mean competition ratio |
| --- | --- |
| CCDC88C C1871 (UniProt Q9P219) | 0.219 |
| CDC42EP4 C313 (UniProt Q9H3Q1) | -0.0571 |
| CENPF C503 (UniProt P49454) | 0.118 |
| CCT7 C364 (UniProt Q99832) | -0.297 |
| CCT5 C253 (UniProt P48643) | -0.211 |
| CDC42BPB C120 (UniProt Q9Y5S2) | -0.0976 |
| CEP112 C514 (UniProt Q8N8E3) | -0.464 |
| CEP41 C240 (UniProt Q9BYV8) | -0.0569 |
| CCP110 C436 (UniProt O43303) | 0.277 |
| CDK6 C83 (UniProt Q00534) | -0.0525 |
| CEP295 C2307 (UniProt Q9C0D2) | 0.283 |
| CCDC97 C136 (UniProt Q96F63) | -0.0642 |
| CENPF C1029 (UniProt P49454) | -0.184 |
| CDK5RAP3 C150 (UniProt Q96JB5) | -0.0794 |
| CDK8 C25 (UniProt P49336) | 0.127 |
| CDKN2AIP C24 (UniProt Q9NXV6) | 0.0711 |
| CDC23 C532 (UniProt Q9UJX2) | 0.0076 |
| CCT5 C407 (UniProt P48643) | -0.128 |
| CCDC186 C54 (UniProt Q7Z3E2) | 0.0303 |

| Target | log2 mean competition ratio |
| --- | --- |
| CCDC85C C373 (UniProt A6NKD9) | 0.205 |
| CDKN2C C141 (UniProt P42773) | 0.0072 |
| CCT7 C310 (UniProt Q99832) | -0.203 |
| CENPH C35 (UniProt Q9H3R5) | 0.0836 |
| CENPB C259 (UniProt P07199) | -0.166 |
| CEP44 C355 (UniProt Q9C0F1) | 0.349 |
| CDCA2 C714 (UniProt Q69YH5) | -0.101 |
| CCT7 C370 (UniProt Q99832) | -0.236 |
| CCDC88A C235 (UniProt Q3V6T2) | 0.0664 |
| CCDC88C C1520 (UniProt Q9P219) | -0.361 |
| CENPF C2738 (UniProt P49454) | -0.0351 |
| CFAP298 C83 (UniProt P57076) | -0.107 |
| CEP350 C179 (UniProt Q5VT06) | -0.35 |
| CD99L2 C236 (UniProt Q8TCZ2) | -0.522 |
| CDK4 C215 (UniProt P11802) | 0.0445 |
| CEP104 C525 (UniProt O60308) | 0.015 |
| CENPE C2643 (UniProt Q02224) | 0.398 |
| CDC25C C42 (UniProt P30307) | -0.0773 |
